Measured values reported in US6570002.
These are yes or no findings as the source states them, for the method shown. In cells and extracts the contact can be indirect. Some results given as binding are weak or reduced against the parent protein; the word gives no strength. For part of these data: Tags and fused reporters may be left off the sequences shown.

Amino acid sequences for entries named in this document (tags omitted).
UniProt O14727: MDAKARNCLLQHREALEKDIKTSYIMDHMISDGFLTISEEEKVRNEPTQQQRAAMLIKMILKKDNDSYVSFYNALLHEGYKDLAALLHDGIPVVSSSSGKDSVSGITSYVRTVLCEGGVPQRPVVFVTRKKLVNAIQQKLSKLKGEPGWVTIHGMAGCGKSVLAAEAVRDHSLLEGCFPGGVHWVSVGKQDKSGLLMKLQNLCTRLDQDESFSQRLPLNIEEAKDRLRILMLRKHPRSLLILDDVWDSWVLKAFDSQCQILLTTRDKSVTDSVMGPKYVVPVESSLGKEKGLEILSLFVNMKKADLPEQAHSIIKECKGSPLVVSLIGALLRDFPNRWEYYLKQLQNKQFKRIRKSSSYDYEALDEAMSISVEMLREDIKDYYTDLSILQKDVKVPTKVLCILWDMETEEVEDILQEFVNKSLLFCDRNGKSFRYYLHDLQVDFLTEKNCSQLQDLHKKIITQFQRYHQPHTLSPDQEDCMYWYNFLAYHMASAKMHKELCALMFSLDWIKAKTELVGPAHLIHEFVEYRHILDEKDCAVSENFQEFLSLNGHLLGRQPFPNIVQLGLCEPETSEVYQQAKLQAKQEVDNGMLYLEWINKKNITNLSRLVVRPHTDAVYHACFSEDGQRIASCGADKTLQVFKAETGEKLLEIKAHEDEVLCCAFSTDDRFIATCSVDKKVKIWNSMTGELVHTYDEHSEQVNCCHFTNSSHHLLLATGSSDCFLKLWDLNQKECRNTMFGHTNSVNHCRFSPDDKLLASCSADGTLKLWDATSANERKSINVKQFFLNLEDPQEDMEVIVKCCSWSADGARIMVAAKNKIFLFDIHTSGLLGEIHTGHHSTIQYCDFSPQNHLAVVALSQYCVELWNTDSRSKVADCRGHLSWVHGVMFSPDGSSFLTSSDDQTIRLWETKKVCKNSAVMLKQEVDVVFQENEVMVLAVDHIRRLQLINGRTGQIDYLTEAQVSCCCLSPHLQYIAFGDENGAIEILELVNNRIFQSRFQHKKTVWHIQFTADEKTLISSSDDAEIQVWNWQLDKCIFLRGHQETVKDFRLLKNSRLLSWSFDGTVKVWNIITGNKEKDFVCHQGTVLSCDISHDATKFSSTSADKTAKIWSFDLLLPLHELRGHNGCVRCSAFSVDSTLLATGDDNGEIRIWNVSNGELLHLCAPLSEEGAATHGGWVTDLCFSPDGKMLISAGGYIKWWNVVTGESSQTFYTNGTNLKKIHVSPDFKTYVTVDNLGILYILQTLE
UniProt P10415: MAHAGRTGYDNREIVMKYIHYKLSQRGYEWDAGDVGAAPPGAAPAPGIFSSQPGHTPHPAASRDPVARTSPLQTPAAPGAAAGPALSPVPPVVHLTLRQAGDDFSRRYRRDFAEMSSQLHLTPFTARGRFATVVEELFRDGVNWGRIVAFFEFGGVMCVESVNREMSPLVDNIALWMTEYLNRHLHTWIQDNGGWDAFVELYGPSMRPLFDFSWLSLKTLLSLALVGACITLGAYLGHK
UniProt Q07817: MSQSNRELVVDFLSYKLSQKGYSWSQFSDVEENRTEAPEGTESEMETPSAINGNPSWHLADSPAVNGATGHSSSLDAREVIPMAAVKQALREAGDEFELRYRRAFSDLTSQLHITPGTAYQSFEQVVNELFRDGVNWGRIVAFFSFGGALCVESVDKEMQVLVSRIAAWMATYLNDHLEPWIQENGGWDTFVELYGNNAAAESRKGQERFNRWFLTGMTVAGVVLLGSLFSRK

Tests used:
HA epitope-tagged Apaf-1 [1] = molecular target: HA epitope-tagged Apaf-1 (UniProt O14727); experiment: co-immunoprecipitation with anti-HA antibody (FIG. 9C)
Apaf-1 [2] = molecular target: Apaf-1 (UniProt O14727); experiment: co-immunoprecipitation from transfected cells (FIGS. 9F-J)
Apaf-1 [3] = molecular target: Apaf-1 (UniProt O14727); experiment: co-immunoprecipitation of endogenous proteins from 293T cell extracts with anti-Aven-b serum (FIG. 9E)
Bcl-2 [4] = molecular target: Bcl-2 (UniProt P10415); experiment: yeast two-hybrid / co-immunoprecipitation from COS-1 cell lysates (FIG. 6)
Bcl-2 [5] = molecular target: Bcl-2 (UniProt P10415); experiment: co-immunoprecipitation from COS-1 cell lysates (FIG. 7B)
Bcl-2 [6] = molecular target: Bcl-2 (UniProt P10415); experiment: yeast two-hybrid and co-immunoprecipitation on COS-1 cell lysates (FIGS. 6, 7, 8)
Apaf-1 [7] = molecular target: Apaf-1 (UniProt O14727); experiment: co-immunoprecipitation (FIGS. 9A-E)
Apaf-1 [8] = molecular target: Apaf-1 (UniProt O14727); experiment: co-immunoprecipitation of endogenous proteins from HeLa cell lysates with anti-Aven-a serum (FIG. 9D)
HA epitope-tagged Apaf-1 [9] = molecular target: HA epitope-tagged Apaf-1 (UniProt O14727); experiment: co-immunoprecipitation with anti-Aven antibodies, immunoblot with anti-HA (FIG. 9B)
Apaf-1 [10] = molecular target: Apaf-1 (UniProt O14727); experiment: co-immunoprecipitation with anti-HA antibody from co-transfected COS-1 cells (FIG. 9A)
Bcl-xL (human) = Bcl-xL (human) (UniProt Q07817); experiment: co-immunoprecipitation from COS-1 cells, HA-tagged Bcl-xL with Flag-tagged N-terminal deletion Aven (FIG. 8A)

Measured: binding

B1: Aven (protein)
chain: MQAERGARGGRGRRPGRGRPGGDRHSERPGAAAAVARGGGGGGGGDGGGRRGRGRGRGFRGARGGRGGGGAPRGSRREPGGWGAGASAPVEDDSDAETYGEENDEQGNYSKRKIVSNWDRYQDIEKEVNNESGESQRGTDFSVLLSSAGDSFSQFRFAEEKEWDSEASCPKQNSAFYVDSELLVRALQELPLCLRLNVAAELVQGTVPLEVPQVKPKRTDDGKGLGMQLKGPLGPGGRGPIFELKSVAAGCPVLLGKDNPSPGPSRDSQKPTSPLQSAGDHLEEELDLLLNLDAPIKEGDNILPDQTSQDLKSKEDGEVVQEEEVCAKPSVTEEKNMEPEQPSTSKNVTEEELEDWLDSMIS
binds: HA epitope-tagged Apaf-1 [1] | Apaf-1 [2] | Apaf-1 [3] | Bcl-2 [4] | Bcl-2 [5] | Bcl-2 [6] | Apaf-1 [7] | Apaf-1 [8]

B2: HA epitope-tagged full length Aven (protein, not shown: small tags and cut ends)
chain: B1 chain
binds: HA epitope-tagged Apaf-1 [9] | Apaf-1 [10]

B3: Flag epitope-tagged N-terminal deletion Aven (protein, not shown: small tags and cut ends)
chain: GSRREPGGWGAGASAPVEDDSDAETYGEENDEQGNYSKRKIVSNWDRYQDIEKEVNNESGESQRGTDFSVLLSSAGDSFSQFRFAEEKEWDSEASCPKQNSAFYVDSELLVRALQELPLCLRLNVAAELVQGTVPLEVPQVKPKRTDDGKGLGMQLKGPLGPGGRGPIFELKSVAAGCPVLLGKDNPSPGPSRDSQKPTSPLQSAGDHLEEELDLLLNLDAPIKEGDNILPDQTSQDLKSKEDGEVVQEEEVCAKPSVTEEKNMEPEQPSTSKNVTEEELEDWLDSMIS
binds: Bcl-xL (human)

B4: HA-tagged ΔN73 Aven (protein, not shown: small tags and cut ends)
chain: B3 chain
binds: Apaf-1 [10]
